No constants are given. Whether binding was seen depends on the method and setting. Some entries that bind do so weakly or less than the wild type.
Key:
[1] = molecular target: cyclin D2-Cdk4 complex (baculovirus produced, co-infected Sf9 cells) (UniProt P30280); test: sequestering of p27 from heat treated lysates by cyclin D2-Cdk4
[2] = molecular target: cyclin D2-Cdk4 complex (baculovirus produced, co-infected Sf9 cells) (UniProt P30280); test: anti-Cdk4 immunoprecipitation of 35S-labelled extracts that received cyclin D2-Cdk4, SDS-PAGE
[3] = molecular target: cyclin D2-Cdk4 complex (baculovirus produced, co-infected Sf9 cells) (UniProt P30280); test: anti-Cdk4 immunoprecipitation of supernatants of extracts that received cyclin D2-Cdk4

Chains of the proteins cited; added tags and fusions are not shown. Lines headed by an entry give the natural chain unless they say otherwise; changes in a name come on top.
UniProt P30280: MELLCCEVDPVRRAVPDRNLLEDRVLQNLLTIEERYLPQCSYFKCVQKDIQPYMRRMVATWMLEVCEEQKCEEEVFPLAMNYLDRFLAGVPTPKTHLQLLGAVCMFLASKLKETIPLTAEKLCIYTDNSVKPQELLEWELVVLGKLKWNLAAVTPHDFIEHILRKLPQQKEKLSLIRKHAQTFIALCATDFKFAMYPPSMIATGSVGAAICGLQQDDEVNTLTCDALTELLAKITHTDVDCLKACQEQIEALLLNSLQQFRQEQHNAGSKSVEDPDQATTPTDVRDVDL
UniProt P46529: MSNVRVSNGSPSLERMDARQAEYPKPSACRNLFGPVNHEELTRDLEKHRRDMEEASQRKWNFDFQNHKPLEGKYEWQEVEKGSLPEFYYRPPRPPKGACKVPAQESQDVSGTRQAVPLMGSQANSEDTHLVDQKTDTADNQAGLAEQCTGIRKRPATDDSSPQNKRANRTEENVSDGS

binding [1]: binds
binding [2]: binds
binding [3]: binds
Substance: p27 protein, the 27 kD cyclin E-Cdk2 binding protein of Mv1Lu mink epithelial cells (endogenous) (from UniProt P46529 1-178)

Reference: US6635450
